Where two headings read alike, the source gives them in different places. These are yes or no findings as the source states them, for the method shown. In cells and extracts the contact can be indirect. Some binding calls cover weakened binding; strength is not graded here.
T1: Ecotropic viral integration site 5 (EVI5) (human (endogenous in A549)) (UniProt O60447)
T1 sequence: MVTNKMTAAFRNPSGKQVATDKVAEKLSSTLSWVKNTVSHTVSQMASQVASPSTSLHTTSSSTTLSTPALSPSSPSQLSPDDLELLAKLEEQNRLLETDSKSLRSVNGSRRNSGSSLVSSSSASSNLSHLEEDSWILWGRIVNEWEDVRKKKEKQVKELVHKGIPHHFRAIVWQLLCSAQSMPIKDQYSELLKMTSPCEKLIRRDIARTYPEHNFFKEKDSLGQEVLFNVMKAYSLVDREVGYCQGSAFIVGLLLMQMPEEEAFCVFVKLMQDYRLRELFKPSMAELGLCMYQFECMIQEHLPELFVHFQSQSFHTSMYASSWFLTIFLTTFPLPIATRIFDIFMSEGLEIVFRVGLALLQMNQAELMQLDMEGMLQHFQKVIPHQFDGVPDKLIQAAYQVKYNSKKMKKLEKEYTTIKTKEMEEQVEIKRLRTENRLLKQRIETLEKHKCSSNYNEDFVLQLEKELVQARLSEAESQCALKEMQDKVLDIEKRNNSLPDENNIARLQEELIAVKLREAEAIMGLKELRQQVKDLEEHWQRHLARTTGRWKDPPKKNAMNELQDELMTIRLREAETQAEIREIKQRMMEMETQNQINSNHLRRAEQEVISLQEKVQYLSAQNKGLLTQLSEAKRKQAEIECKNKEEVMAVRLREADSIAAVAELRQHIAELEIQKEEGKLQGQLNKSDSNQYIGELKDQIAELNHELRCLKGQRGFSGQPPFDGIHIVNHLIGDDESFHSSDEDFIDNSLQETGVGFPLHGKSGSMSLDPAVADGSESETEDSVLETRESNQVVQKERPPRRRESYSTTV

Amino acid sequences for entries named in this document (tags omitted). Residues count along the entry.
UniProt P37173, residues 23-567: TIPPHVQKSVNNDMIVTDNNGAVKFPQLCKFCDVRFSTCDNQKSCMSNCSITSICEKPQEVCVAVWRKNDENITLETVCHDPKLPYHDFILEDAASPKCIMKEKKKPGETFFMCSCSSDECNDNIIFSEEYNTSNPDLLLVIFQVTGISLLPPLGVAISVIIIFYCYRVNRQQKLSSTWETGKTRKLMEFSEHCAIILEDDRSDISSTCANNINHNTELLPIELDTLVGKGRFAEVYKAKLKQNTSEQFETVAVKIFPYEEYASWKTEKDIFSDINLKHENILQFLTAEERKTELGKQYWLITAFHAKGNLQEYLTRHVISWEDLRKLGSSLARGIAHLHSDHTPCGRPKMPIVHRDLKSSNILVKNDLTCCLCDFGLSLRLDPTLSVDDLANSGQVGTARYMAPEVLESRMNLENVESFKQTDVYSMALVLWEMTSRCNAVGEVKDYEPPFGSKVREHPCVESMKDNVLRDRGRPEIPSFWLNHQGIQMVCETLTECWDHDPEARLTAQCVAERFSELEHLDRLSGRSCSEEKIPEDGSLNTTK


How the values were obtained:
[1] = target: T1, Ecotropic viral integration site 5 (EVI5) (human (endogenous in A549)); experiment: co-IP; lysates (modified RIPA buffer with protease and phosphatase inhibitors) of control, EVI5-overexpressing or EVI5-KO A549 cells; pre-cleared with protein G beads; 1 μg rabbit anti-EVI5 antibody (Abcam ab70790) overnight in a cold room, then protein G beads 3-4 h; washed three times with RIPA buffer; western blot
[2] = target: T1, Ecotropic viral integration site 5 (EVI5) (human (endogenous in A549)); experiment: as above; remark: listed apart in the source

binding [1] | binding [2] | Molecule
binds | – | TGF-β receptor II (from UniProt P37173 23-567)
– | binds | TGF-β receptor I (receptor, UniProt P36897 34-503) LQCFCHLCTKDNFTCVTDGLCFVSVTETTDKVIHNSMCIAEIDLIPRDRPFVCAPSSKTGSVTTTYCCNQDHCNKIELPTTVKSSPGLGPVELAAVIAGPVCFVCISLMLMVYICHNRTVIHHRVPNEEDPSLDRPFISEGTTLKDLIYDMTTSGSGSGLPLLVQRTIARTIVLQESIGKGRFGEVWRGKWRGEEVAVKIFSSREERSWFREAEIYQTVMLRHENILGFIAADNKDNGTWTQLWLVSDYHEHGSLFDYLNRYTVTVEGMIKLALSTASGLAHLHMEIVGTQGKPAIAHRDLKSKNILVKKNGTCCIADLGLAVRHDSATDTIDIAPNHRVGTKRYMAPEVLDDSINMKHFESFKRADIYAMGLVFWEIARRCSIGGIHEDYQLPYYDLVPSDPSVEEMRKVVCEQKLRPNIPNRWQSCEALRVMAKIMRECWYANGAARLTALRIKKTLSQLSQQEGIKM
– | binds | Emi1 (protein, UniProt Q9UKT4 1-447) MSRRPCSCALRPPRCSCSASPSAVTAAGRPRPSDSCKEESSTLSVKMKCDFNCNHVHSGLKLVKPDDIGRLVSYTPAYLEGSCKDCIKDYERLSCIGSPIVSPRIVQLETESKRLHNKENQHVQQTLNSTNEIEALETSRLYEDSGYSSFSLQSGLSEHEEGSLLEENFGDSLQSCLLQIQSPDQYPNKNLLPVLHFEKVVCSTLKKNAKRNPKVDREMLKEIIARGNFRLQNIIGRKMGLECVDILSELFRRGLRHVLATILAQLSDMDLINVSKVSTTWKKILEDDKGAFQLYSKAIQRVTENNNKFSPHASTREYVMFRTPLASVQKSAAQTSLKKDAQTKLSNQGDQKGSTYSRHNEFSEVAKTLKKNESLKACIRCNSPAKYDCYLQRATCKREGCGFDYCTKCLCNYHTTKDCSDGKLLKASCKIGPLPGTKKSKKNLRRL

— publication PMC7212589
